Measurements taken from PubChem BioAssay AID504444 (National Center for Advancing Translational Sciences (NCATS), 2011).
Out of some 360,000 compounds screened, about 7,500 (2.1%) were called active. The shares of active, inactive and inconclusive entries below differ from those in the screen. Calls come from the whole dose curve; as a rule, active = well fitted inhibition curve with a large enough effect; inconclusive = small, poorly fitted or top-dose-only effect, or effect the other way; inactive = flat fitted curve, though single readings scatter. Potencies beside an inconclusive call are fits to weak or partial responses and may not hold up.
Potency is the fitted concentration of half-maximal effect.

Experiment: Nrf2 qHTS screen for inhibitors; note: nearly all actives have a fitted effect of over 60% in size
Conditions: A549 ARE-Fluc reporter, luciferase luminescence, 18-24 h; series mostly up to 46 µM
Summary of the method: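 In this cell-based qHTS, ARE-driven firefly luciferase in A549 cells reports Nrf2 activity; the luminescent signal after BugLite lysis is the measured value, with a prior CellTiter-Fluor read for cell health.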
With `Cc1nn2cc(-c3ccc(Cl)cc3)cnc2c1Cl` the Potency was inconclusive: 9.2 µM [activator, partial curve].
In the case of `Cn1c(=O)c(C(=O)NNC(=O)c2cccc(Cl)c2)c(O)c2ccccc21`, the Potency is reported as inconclusive: 29.1 µM [falling, single point].
For `CC(C)(C)c1ccc(C(=O)NCc2ccc(Cl)cc2)cc1`, the Potency was inconclusive: 5.8 µM [activator, single point].
With `O/N=C/c1ccc(OCc2ccccc2)c(Cl)c1` the Potency was inconclusive: 14.6 µM [activator, partial curve].
For `C[C@]12CC[C@@H]3c4ccc(O)cc4CC[C@H]3[C@@H]1CC[C@@H]2OC(=O)CCC(=O)O`, the Potency was inconclusive: 10.3 µM [falling, partial curve].
With `COc1ccc(S(=O)(=O)Nc2nc3c(s2)CCCC3)cc1` the Potency was inconclusive: 16.4 µM [falling, single point].
With `N#Cc1cc2cc3c(cc2nc1SCC(=O)N1CCOCC1)OCCO3` the Potency was inconclusive: 23.1 µM [activator, partial curve].
With `C=CCn1c(SC(C)C(=O)NCCC2=CCCCC2)nc2ccccc2c1=O` (configuration not stated) the Potency was inconclusive: 8.2 µM [falling, partial curve, poor fit].
For `CCC(C)(C)C1CCc2c(sc(NC(=O)c3ccccc3C(=O)O)c2C#N)C1` (configuration not stated), the Potency was inconclusive: 23.1 µM [activator, partial curve, poor fit].
For `COC(=O)c1cn(Nc2ncc(C(F)(F)F)cc2Cl)c(=O)c2ccccc12`, the Potency was inconclusive: 25.9 µM [falling, partial curve].
With `Cc1[nH]c2ccccc2c1C(=O)NS(=O)(=O)Nc1ccc(Cl)cc1` the Potency was inconclusive: 20.6 µM [activator, partial curve, poor fit].
For `COc1ccc(-c2cc3nnc(-c4ccccc4)nc3s2)cc1`, the Potency was inconclusive: 0.461 µM [activator, full curve, poor fit].
With `CC(Sc1nnc2c(n1)[nH]c1ccccc12)C(=O)NC1CCCCC1` (configuration not stated) the Potency was inconclusive: 20.6 µM [falling, single point].
In the case of `Cc1nc2ccccc2c(C)c1C(=O)c1ccccc1`, the Potency is reported as inconclusive: 14.6 µM [falling, partial curve, poor fit].
For `CN1CCN(c2nc(-c3cccnc3)nc3ccccc23)CC1`, the Potency was inconclusive: 32.6 µM [falling, single point].
In the case of `CCCCC(=O)Nc1c(-c2ccc(OC)c(OC)c2)c(=O)c2ccccc2n1C`, the Potency is reported as “inactive”.
In the case of `Cc1ccc(OCC(=O)NC2CCSc3ccccc32)cc1` (configuration not stated), the Potency is reported as inconclusive: 29.1 µM [activator, single point].
